Columns and labels:
[1] = test system: ovary-extracted mice (oophorectomized osteoporosis); test: Animal experiment: intravenous injection to ovary-extracted mice on low-calcium feed, dry weight of femurs and tibia microscopy; assay type: in vivo, female ddY mice; conditions: tail vein, 5 ml/kg body weight/shot, once daily, five times a week
Protocol: An injection containing 10 w/w % trehalose, obtained by the later described Example 7, was diluted with a phosphate buffered saline, which had been filtered with a membrane filter having a pore size of 0.22 μm (hereinafter abbreviated as “PBS”) into a 0.1 w/w % or 1 w/w % trehalose solution. These solutions and the above injection were used for test samples. According to what is done conventionally, female ddY mice, 4-week-old, which had been grouped into 34 heads/group based on their body weight, were anesthetized with sodium pentobarbital, and extracted their ovaries. From the next day, the mice were injected from their tail veins with any one of the test samples at a dose of 5 ml/kg body weight/shot, once every day and five times a week. […] The feed used was a low-calcium feed for ease of making the difference of the bone content.
In parallel, the following control groups were provided and treated similarly as the group with trehalose: As control 1, a group in which mice were administered with the same amount of PBS as the test samples in place of them; and as control 2, a group in which mice, that were received with a laparotomy pseudo-operation and were not extracted their ovaries, were administered with the same amount of PBS as the test samples in place of them. Some of the mice administered with trehalose using one w/w t trehalose solution, and the mice in controls 1 and 2 as non-trehalose administration groups were extracted their tibias, followed by observing the tibias microscopically. The specimens for microscopic observation were prepared in the usual manner by immobilizing the extracted tibias with formalin solution, washed with water, delimed, split along with the long axis, and treated with protease K to remove bone marrow cells. The specimens of tibias were observed by a relatively-low vacuum electron-microscope under 24 magnifications, and photographed. The data are respectively in FIGS. 4 to 6. In these figures, white parts are the trabecula of cancellous bone. […]

[2] = test system: ovary-extracted mice (oophorectomized osteoporosis); test: Animal experiment: oral administration to ovary-extracted mice on low-calcium feed, dry weight of femurs and tibia microscopy; assay type: in vivo, female ddY mice; conditions: once daily, five shots a week
Source text: According to what is done conventionally, female ddY mice, 4-week-old, which had been grouped into 34 heads/group based on their body weight, were anesthetized with sodium pentobarbital, and extracted their ovaries. From the next day, the mice were orally administered with “TREHAOSE®”, a crystalline trehalose powder containing at least 98% trehalose, d.s.b., commercialized by Hayashibara Shoji, Inc, Okayama, Japan, which had been dissolved in distilled water, at a dose of 0.01, 0.1 or 1 g/kg body weight per shot once every day, five shots in a week. […] The feed used was a low-calcium feed for ease of making the difference of the bone content.
In parallel, the following control groups were provided and treated similarly as the group with trehalose: As control 1, a group in which mice were administered with the same amount of distilled water as the aqueous trehalose solution in place of the trehalose solution; as control 2, a group in which mice were administered with estradiol, as a therapeutic agent for osteoporosis, dissolved in the same amount of distilled water as the aqueous trehalose solution in place of the trehalose solution, at a dose of one mg/kg body weight/shot, two times a week; and as control 3, a group in which mice, which were received with a laparotomy pseudo-operation and not extracted their ovaries, were administered with the same amount of distilled water as the aqueous trehalose solution in place of the trehalose solution. Some of the mice administered with trehalose at a dose of 0.1 g/kg body weight/shot, and the mice in controls 1 and 3 as groups with no trehalose were extracted their tibias, followed by observing the tibias microscopically. The specimens for microscopic observation were prepared in the usual manner by immobilizing the extracted tibias with formalin solution, washed with water, delimed, split along with the long axis, and treated with protease K to remove bone marrow cells. The specimens of tibias were observed by a relatively-low vacuum electron-microscope under 24 magnifications, and photographed. […]

For `OC[C@H]1O[C@H](O[C@H]2O[C@H](CO)[C@@H](O)[C@H](O)[C@H]2O)[C@H](O)[C@@H](O)[C@@H]1O` [Trehalose, trehalose], the “Body weight when tibia was enucleated” value ([1]; 0.1 w/w % trehalose solution) was 31.9 ± 2.0 g, the “Body weight when tibia was enucleated” value ([1]; 1 w/w % trehalose solution) was 32.0 ± 2.2 g and the “Body weight when tibia was enucleated” value ([1]; 10 w/w % trehalose injection) was 32.3 ± 2.1 g. The “Body weight when tibia was enucleated” value ([2]; oral 0.01 g/kg body weight/shot) was 31.7 ± 2.2 g, the “Body weight when tibia was enucleated” value ([2]; oral 0.1 g/kg body weight/shot) was 31.3 ± 2.4 g and the “Body weight when tibia was enucleated” value ([2]; oral 1 g/kg body weight/shot) was 32.0 ± 2.1 g.
